Reference: PMC6778137, “The midbody interactome reveals unexpected roles for PP1 phosphatases in cytokinesis” (Nature Communications, 2019)

By UniProt entry, the sequences of proteins in these tests, tags left out.
UniProt O14578: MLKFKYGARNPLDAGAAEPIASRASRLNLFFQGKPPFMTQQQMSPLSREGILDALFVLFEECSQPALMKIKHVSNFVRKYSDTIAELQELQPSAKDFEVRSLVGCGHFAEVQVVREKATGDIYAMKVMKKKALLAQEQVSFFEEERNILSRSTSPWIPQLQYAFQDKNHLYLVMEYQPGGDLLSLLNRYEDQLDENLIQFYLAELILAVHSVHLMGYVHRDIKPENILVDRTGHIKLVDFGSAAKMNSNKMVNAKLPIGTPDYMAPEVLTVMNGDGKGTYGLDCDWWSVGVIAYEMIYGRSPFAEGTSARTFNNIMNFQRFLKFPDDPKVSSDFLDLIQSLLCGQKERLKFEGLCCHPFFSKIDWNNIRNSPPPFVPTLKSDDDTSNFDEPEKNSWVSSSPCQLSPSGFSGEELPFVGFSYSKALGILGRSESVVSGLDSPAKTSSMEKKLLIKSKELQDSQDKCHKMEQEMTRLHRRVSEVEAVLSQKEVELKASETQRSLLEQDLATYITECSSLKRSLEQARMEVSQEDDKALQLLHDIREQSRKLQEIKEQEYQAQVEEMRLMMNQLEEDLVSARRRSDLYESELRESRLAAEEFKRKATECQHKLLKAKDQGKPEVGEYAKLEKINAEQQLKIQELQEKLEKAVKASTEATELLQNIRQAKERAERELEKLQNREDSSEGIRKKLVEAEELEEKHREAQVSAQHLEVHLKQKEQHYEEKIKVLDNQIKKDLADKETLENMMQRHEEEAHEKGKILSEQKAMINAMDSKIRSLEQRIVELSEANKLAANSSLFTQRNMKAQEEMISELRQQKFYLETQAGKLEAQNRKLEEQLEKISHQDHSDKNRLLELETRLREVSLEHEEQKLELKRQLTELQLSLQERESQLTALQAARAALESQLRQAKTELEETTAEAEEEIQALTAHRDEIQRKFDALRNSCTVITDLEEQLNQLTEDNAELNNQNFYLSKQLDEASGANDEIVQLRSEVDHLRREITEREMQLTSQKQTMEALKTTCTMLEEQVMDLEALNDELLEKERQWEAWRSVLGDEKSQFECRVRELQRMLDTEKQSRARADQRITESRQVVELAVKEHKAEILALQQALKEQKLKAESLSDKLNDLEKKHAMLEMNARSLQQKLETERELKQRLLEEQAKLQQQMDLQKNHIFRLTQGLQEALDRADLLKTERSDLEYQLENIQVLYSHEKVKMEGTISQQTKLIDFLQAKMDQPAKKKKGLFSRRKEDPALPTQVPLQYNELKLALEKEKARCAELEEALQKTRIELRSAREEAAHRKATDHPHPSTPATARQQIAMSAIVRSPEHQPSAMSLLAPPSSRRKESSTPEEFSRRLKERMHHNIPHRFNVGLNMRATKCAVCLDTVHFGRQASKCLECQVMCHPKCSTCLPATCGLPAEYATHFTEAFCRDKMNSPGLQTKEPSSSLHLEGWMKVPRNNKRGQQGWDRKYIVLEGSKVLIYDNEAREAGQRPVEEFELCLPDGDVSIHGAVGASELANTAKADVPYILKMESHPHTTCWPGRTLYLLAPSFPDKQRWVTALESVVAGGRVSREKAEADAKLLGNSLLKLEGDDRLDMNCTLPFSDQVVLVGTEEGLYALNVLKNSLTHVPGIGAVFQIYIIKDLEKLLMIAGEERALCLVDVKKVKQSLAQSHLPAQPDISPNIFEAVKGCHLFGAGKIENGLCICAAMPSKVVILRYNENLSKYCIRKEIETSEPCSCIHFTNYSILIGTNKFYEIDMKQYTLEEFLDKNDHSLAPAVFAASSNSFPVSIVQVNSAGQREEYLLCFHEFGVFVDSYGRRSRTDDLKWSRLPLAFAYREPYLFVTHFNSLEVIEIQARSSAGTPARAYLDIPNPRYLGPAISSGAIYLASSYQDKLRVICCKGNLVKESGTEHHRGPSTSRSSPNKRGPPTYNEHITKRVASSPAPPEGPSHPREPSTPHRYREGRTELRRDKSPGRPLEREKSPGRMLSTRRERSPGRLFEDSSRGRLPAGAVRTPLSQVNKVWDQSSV
UniProt O43663: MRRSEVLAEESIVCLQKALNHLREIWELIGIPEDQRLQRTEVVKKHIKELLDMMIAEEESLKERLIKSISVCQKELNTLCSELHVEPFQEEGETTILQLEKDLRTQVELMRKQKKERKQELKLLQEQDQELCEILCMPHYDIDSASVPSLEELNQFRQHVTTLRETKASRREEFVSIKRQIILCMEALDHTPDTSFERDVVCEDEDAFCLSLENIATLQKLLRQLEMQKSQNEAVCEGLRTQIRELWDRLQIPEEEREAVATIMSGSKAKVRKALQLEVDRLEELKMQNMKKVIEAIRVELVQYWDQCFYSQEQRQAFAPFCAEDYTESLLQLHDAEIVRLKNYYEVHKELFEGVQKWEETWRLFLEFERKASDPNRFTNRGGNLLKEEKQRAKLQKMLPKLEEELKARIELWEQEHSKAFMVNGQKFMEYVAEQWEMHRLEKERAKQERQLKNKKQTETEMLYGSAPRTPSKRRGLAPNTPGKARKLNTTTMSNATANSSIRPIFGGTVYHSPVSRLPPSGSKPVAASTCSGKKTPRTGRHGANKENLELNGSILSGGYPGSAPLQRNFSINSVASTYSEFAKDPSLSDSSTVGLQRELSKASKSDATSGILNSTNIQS
UniProt Q15058: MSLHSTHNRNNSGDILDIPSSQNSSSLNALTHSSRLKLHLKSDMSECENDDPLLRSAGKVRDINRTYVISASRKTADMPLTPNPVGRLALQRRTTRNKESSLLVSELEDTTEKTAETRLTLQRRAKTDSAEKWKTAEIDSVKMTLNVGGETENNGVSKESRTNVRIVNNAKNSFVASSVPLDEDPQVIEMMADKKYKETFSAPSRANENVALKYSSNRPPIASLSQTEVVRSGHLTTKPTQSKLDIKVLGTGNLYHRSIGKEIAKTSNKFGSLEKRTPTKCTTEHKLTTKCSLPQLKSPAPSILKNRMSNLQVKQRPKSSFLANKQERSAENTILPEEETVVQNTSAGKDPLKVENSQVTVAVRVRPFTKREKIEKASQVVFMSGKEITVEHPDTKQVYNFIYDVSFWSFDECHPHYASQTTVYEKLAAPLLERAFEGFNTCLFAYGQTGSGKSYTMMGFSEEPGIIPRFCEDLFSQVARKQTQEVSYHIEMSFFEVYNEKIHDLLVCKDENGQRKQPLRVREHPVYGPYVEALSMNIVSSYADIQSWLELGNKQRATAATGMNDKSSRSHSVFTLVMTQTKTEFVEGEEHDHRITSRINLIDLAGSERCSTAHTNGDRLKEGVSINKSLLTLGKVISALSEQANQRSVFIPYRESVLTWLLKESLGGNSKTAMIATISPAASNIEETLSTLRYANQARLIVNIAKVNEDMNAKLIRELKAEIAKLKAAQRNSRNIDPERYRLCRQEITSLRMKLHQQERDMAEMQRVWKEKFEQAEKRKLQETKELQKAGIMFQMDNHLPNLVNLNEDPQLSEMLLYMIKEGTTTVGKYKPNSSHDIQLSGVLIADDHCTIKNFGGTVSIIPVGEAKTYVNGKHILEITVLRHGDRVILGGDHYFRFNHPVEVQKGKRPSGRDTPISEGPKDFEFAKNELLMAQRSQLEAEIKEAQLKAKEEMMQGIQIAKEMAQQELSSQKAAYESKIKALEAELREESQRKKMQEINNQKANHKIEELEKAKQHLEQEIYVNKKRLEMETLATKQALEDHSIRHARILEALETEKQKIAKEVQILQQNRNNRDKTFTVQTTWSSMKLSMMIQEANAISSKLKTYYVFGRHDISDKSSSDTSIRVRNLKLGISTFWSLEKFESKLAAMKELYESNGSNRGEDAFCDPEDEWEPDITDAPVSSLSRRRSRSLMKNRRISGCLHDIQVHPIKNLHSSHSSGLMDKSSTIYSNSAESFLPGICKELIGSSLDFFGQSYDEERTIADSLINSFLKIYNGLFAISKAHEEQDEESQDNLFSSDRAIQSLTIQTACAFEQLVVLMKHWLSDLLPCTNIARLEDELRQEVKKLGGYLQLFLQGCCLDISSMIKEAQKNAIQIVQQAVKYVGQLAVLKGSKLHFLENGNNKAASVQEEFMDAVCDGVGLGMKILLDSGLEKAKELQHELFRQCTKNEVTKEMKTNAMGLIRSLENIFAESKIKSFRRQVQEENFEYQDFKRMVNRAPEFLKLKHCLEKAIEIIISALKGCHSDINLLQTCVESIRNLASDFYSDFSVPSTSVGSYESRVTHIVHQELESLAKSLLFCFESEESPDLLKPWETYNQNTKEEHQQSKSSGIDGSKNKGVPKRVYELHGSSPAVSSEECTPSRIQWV
UniProt P53350: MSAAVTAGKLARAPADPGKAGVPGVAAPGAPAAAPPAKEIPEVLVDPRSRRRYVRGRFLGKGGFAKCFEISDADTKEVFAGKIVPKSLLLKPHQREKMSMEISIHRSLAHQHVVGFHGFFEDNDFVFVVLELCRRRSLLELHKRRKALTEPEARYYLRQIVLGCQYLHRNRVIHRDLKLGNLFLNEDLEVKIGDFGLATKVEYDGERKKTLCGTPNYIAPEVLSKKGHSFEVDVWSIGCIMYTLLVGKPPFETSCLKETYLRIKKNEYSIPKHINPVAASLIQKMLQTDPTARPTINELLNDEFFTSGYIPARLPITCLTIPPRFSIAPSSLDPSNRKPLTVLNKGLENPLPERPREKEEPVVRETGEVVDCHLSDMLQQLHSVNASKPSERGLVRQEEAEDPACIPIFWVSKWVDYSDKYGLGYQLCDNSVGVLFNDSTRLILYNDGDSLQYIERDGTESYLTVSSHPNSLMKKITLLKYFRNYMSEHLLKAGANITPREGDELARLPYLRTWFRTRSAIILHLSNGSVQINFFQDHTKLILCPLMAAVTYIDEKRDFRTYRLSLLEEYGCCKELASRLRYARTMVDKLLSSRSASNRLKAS

Assays:
Experiment in all cases: affinity purification with mass spectrometry; GFP-tagged bait captured on GFP-Trap_MA magnetic beads from lysates of stably expressing HeLa cells synchronised in telophase (CIT-K::AcGFP also in S phase and metaphase); 20 mM Tris-HCl, 150 mM NaCl, 2 mM MgCl2, 1 mM EGTA, 0.1% NP-40, 4 h at 4 °C; hits absent from GFP-alone controls classed as specific
[1] = biological target: Citron kinase (CIT-K) tagged with AcGFP (UniProt O14578)
[2] = biological target: PRC1 tagged with GFP (bait) (UniProt O43663)
[3] = biological target: KIF14 tagged with GFP (bait) (UniProt Q15058)

Row | binding [1] | binding [2] | binding [3] | Molecule
1 |  | binds |  | Polo-like kinase 1 (Plk1) (from UniProt P53350 1-603)
2 | binds |  | binds | microtubule depolymerizing kinesin KIF2C/MCAK (protein, UniProt Q99661 1-725) MAMDSSLQARLFPGLAIKIQRSNGLIHSANVRTVNLEKSCVSVEWAEGGATKGKEIDFDDVAAINPELLQLLPLHPKDNLPLQENVTIQKQKRRSVNSKIPAPKESLRSRSTRMSTVSELRITAQENDMEVELPAAANSRKQFSVPPAPTRPSCPAVAEIPLRMVSEEMEEQVHSIRGSSSANPVNSVRRKSCLVKEVEKMKNKREEKKAQNSEMRMKRAQEYDSSFPNWEFARMIKEFRATLECHPLTMTDPIEEHRICVCVRKRPLNKQELAKKEIDVISIPSKCLLLVHEPKLKVDLTKYLENQAFCFDFAFDETASNEVVYRFTARPLVQTIFEGGKATCFAYGQTGSGKTHTMGGDLSGKAQNASKGIYAMASRDVFLLKNQPCYRKLGLEVYVTFFEIYNGKLFDLLNKKAKLRVLEDGKQQVQVVGLQEHLVNSADDVIKMIDMGSACRTSGQTFANSNSSRSHACFQIILRAKGRMHGKFSLVDLAGNERGADTSSADRQTRMEGAEINKSLLALKECIRALGQNKAHTPFRESKLTQVLRDSFIGENSRTCMIATISPGISSCEYTLNTLRYADRVKELSPHSGPSGEQLIQMETEEMEACSNGALIPGNLSKEEEELSSQMSSFNEAMTQIRELEEKAMEELKEIIQQGPDWLELSEMTEQPDYDLETFVNKAESALAQQAKHFSALRDVIKALRLAMQLEEQASRQISSKKRPQ

Second part, the molecule before the results:

Row | Molecule | binding [1] | binding [2] | binding [3]
3 | KIF14 (endogenous, prey) (from UniProt Q15058 1-1648) | binds |  | 
4 | Anillin (endogenous, prey) (protein, UniProt Q9NQW6 1-1124) MDPFTEKLLERTRARRENLQRKMAERPTAAPRSMTHAKRARQPLSEASNQQPLSGGEEKSCTKPSPSKKRCSDNTEVEVSNLENKQPVESTSAKSCSPSPVSPQVQPQAADTISDSVAVPASLLGMRRGLNSRLEATAASSVKTRMQKLAEQRRRWDNDDMTDDIPESSLFSPMPSEEKAASPPRPLLSNASATPVGRRGRLANLAATICSWEDDVNHSFAKQNSVQEQPGTACLSKFSSASGASARINSSSVKQEATFCSQRDGDASLNKALSSSADDASLVNASISSSVKATSPVKSTTSITDAKSCEGQNPELLPKTPISPLKTGVSKPIVKSTLSQTVPSKGELSREICLQSQSKDKSTTPGGTGIKPFLERFGERCQEHSKESPARSTPHRTPIITPNTKAIQERLFKQDTSSSTTHLAQQLKQERQKELACLRGRFDKGNIWSAEKGGNSKSKQLETKQETHCQSTPLKKHQGVSKTQSLPVTEKVTENQIPAKNSSTEPKGFTECEMTKSSPLKITLFLEEDKSLKVTSDPKVEQKIEVIREIEMSVDDDDINSSKVINDLFSDVLEEGELDMEKSQEEMDQALAESSEEQEDALNISSMSLLAPLAQTVGVVSPESLVSTPRLELKDTSRSDESPKPGKFQRTRVPRAESGDSLGSEDRDLLYSIDAYRSQRFKETERPSIKQVIVRKEDVTSKLDEKNNAFPCQVNIKQKMQELNNEINMQQTVIYQASQALNCCVDEEHGKGSLEEAEAERLLLIATGKRTLLIDELNKLKNEGPQRKNKASPQSEFMPSKGSVTLSEIRLPLKADFVCSTVQKPDAANYYYLIILKAGAENMVATPLASTSNSLNGDALTFTTTFTLQDVSNDFEINIEVYSLVQKKDPSGLDKKKKTSKSKAITPKRLLTSITTKSNIHSSVMASPGGLSAVRTSNFALVGSYTLSLSSVGNTKFVLDKVPFLSSLEGHIYLKIKCQVNSSVEERGFLTIFEDVSGFGAWHRRWCVLSGNCISYWTYPDDEKRKNPIGRINLANCTSRQIEPANREFCARRNTFELITVRPQREDDRETLVSQCRDTLCVTKNWLSADTKEERDLWMQKLNQVLVDIRLWQPDACYKPIGKP | binds |  | 

No constants are given. Whether binding was seen depends on the method and setting. Binding seen in cells or lysates may run through a third protein. A yes stands for co-enrichment or nearness to the bait. Other partners may have been found.
